In the supplement of paper PMC3334620:
In all, about 33,000 sequences were measured (“E-score (-0.5 to 0.5)”: median about -0.015, highest 2% from about 0.3 on). Some of the results follow.

Molecular target: T1, Abf1 (UniProt P14164)
T1 sequence: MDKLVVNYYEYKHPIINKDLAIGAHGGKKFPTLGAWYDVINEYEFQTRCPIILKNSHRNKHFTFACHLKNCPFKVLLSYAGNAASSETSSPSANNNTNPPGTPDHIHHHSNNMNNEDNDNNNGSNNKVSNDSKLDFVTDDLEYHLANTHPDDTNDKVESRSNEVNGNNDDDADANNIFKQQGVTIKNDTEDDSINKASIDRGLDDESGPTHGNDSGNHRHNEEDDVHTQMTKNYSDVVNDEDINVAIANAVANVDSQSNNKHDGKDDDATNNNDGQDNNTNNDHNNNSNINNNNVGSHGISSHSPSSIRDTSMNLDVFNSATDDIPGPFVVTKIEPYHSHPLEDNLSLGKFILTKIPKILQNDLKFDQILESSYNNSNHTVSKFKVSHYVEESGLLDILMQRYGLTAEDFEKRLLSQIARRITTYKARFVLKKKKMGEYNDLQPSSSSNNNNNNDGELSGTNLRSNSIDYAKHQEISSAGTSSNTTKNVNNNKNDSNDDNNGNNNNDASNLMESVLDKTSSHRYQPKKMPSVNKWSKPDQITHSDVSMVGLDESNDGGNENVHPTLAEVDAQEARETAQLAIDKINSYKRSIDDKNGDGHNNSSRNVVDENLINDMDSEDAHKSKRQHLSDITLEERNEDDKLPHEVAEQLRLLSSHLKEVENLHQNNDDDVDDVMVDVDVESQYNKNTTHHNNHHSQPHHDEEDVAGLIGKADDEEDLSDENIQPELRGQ
Assay: PBM E-score (8-mer binding enrichment) (E-score (-0.5 to 0.5)); higher = stronger / more preferred TF binding
Conditions: protein concentration: 200 nM; construct: GST-full length
Method in brief: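 For each ungapped eight-base word taken together with its reverse complement, the Universal PBM Analysis Suite assigned an E-score. Binding data came from GST-tagged yeast transcription factors, applied at about 100-200 nM, on universal all-10-mer Agilent arrays made double-stranded by primer extension. Fluorescent anti-GST marked bound protein, and scans were normalised with masliner.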

In order of rising “PBM E-score” value:
1. AGAAGGGA  -0.335
2. GGCTTGGA  -0.318
3. AGGACTTG  -0.313
4. AGAGTCAA  -0.312
5. AGGTATGG  -0.304
6. GGCGGACA  -0.302
7. GGAAGGGA  -0.285
8. AGATGGGG  -0.284
9. CCCACGCG  -0.278
10. GCCCCAGC  -0.274
11. CCATGCGG  -0.272
12. CTTGTGGA  -0.249
13. CCTGTCAG  -0.249
14. TGCTGCCA  -0.246
15. AGGATTTC  -0.243
16. CCATAAGG  -0.243
17. AAAGAGGA  -0.237
18. AGGGGAAC  -0.236
19. CCATCCAG  -0.232
20. CCCCCACG  -0.23
21. ATGGAACC  -0.218
22. ACCATAGG  -0.214
23. AGGCCCCA  -0.212
24. AGGGTGAA  -0.209
25. ACTGACGC  -0.209
26. CGAATAGC  -0.2
27. ACCCCTAA  -0.2
28. ACGGGTCT  -0.199
29. AGCTGAGG  -0.196
30. GCCGAGCA  -0.195
31. AGGTAGCA  -0.186
32. ACTGCTAA  -0.185
33. CTTCCTGC  -0.184
34. CCCTGCTC  -0.181
35. CGCGGAGC  -0.176
36. CCAGTCAG  -0.175
37. GAAGGGCA  -0.172
38. ACTTTAGC  -0.172
39. CACCTCCC  -0.167
40. CATTTGCC  -0.165
41. CAGTGCTA  -0.161
42. AGCCTGTG  -0.16
43. AGCCATGC  -0.153
44. CCCATCAA  -0.153
45. CTCGCGGA  -0.149
46. GGAGACCA  -0.147
47. CCGATGCG  -0.146
48. CCGGACGG  -0.145
49. ACTCCCCG  -0.145
50. GGTTCCAC  -0.144
51. GCGTATCC  -0.142
52. CTTTACCC  -0.141
53. CCATCTAA  -0.139
54. CGCCCGGA  -0.138
55. CGGTCAGC  -0.137
56. GGAGGTTA  -0.133
57. AAGGGGCT  -0.133
58. GAGTTAGA  -0.13
59. AGACAGGG  -0.119
60. AAGGAGAC  -0.117
61. CGCAAGGA  -0.102
62. ACTGCGCC  -0.0997
63. AAGATGCC  -0.0969
64. AAGGTGGT  -0.0932
65. AATTGCCG  -0.0915
66. CCTACTCG  -0.0904
67. TACTCTGA  -0.0882
68. CGAGCGCC  -0.088
69. CGAGGACC  -0.0869
70. AGGCCGAG  -0.0867
71. CTCCAAAG  -0.0859
72. ACCACTAA  -0.0853
73. CATAACGG  -0.0846
74. AATCGGCG  -0.0845
75. ACAAACGT  -0.084
76. CCTGAACG  -0.0804
77. AAGTTAGC  -0.0803
78. ATGTCTAC  -0.0792
79. GGGCTATA  -0.0762
80. CGAAGCCG  -0.0718
81. AAACACCA  -0.0704
82. AAATAGCA  -0.07
83. CGCCCTTA  -0.061
84. CGCGTTTA  -0.0607
85. CACCTTCC  -0.0606
86. CACTGATC  -0.0563
87. ACCTTGTG  -0.0546
88. AAGTTCCC  -0.051
89. GATGCAGA  -0.0479
90. CTATAACC  -0.0438
91. CATGGGAA  -0.0428
92. ACCCATTA  -0.0415
93. ACGGCCCA  -0.0404
94. ACACCCGT  -0.04
95. CGCTAGCA  -0.037
96. CCGGTTCG  -0.035
97. CGACTCAC  -0.034
98. CTGCGTGC  -0.0328
99. AAATTAAG  -0.0306
100. GGAAGCAC  -0.0279
101. CCTGAAAC  -0.0278
102. CGACCCTA  -0.0254
103. GGATCCTA  -0.0233
104. GATAAGGA  -0.0227
105. GCGTGCAC  -0.0221
106. CGTCTGGA  -0.0192
107. GACTTTAA  -0.0109
108. ATCTCTAC  -0.0063
109. CAGTCACC  -0.00428
110. TGGCTGAA  -0.00205
111. GCGAAGGA  -0.00182
112. AGGCGCAC  -0.00058
113. AAAAAACT  0.00027
114. GACCTAGA  0.00072
115. AGCTTTAT  0.00195
116. GACAGAGA  0.00306
117. CCAACCGA  0.00434
118. CTAGGTCA  0.00518
119. ATGTCGGG  0.0062
120. TTCTGAAA  0.00775
121. ATTTCCAA  0.00978
122. AGTTTCCG  0.0122
123. ATTGGGCA  0.0135
124. CATAGTGC  0.015
125. CTCTAGGC  0.0155
126. TGAATCAA  0.0162
127. AGTGTGTC  0.0172
128. CGAGTACC  0.0195
129. ATACTGTA  0.0204
130. CACTGCAA  0.0215
131. CAGTCTAG  0.0222
132. CTAATTAC  0.0227
133. AGGGGAAT  0.0263
134. GATGGTAA  0.0264
135. CAGATCGA  0.0324
136. ACAACCGG  0.0327
137. ACATCGGA  0.0338
138. AAACAACT  0.0342
139. AACACTAA  0.0366
140. AAATTAGC  0.0388
141. ACACACAA  0.0411
142. ACATGCTA  0.0424
143. AAAGTCTA  0.0425
144. CACTTCAA  0.0436
145. CATATTCA  0.0439
146. GTGCTTGA  0.0441
147. AACAACTG  0.0451
148. CGACGTCG  0.0452
149. ATAATGCC  0.0461
150. AAAATACA  0.0468
151. ATTCCACA  0.0484
152. AGTTGGCG  0.0496
153. TAAGGTCA  0.051
154. ATGTTGGA  0.052
155. GGTGACCA  0.0526
156. AGCTCACA  0.0527
157. CAAGTGTG  0.0542
158. CACTGCCG  0.0574
159. CACTAGAC  0.0603
160. GTTAAAAC  0.0636
161. TTCTAAAA  0.064
162. CGCGTTAC  0.0653
163. AGAGCACG  0.068
164. GTATAGGA  0.0694
165. GCTTTCCA  0.072
166. GATACATC  0.0742
167. GACGTCTA  0.0745
168. CATAAACC  0.0791
169. ATATTCCG  0.0799
170. ACAACTTA  0.0805
171. ACGAGCGT  0.0845
172. CTTAAATA  0.0857
173. GCCAGTTA  0.0901
174. AACTTAGA  0.0904
175. ATTAGAGA  0.0917
176. GGTAATAA  0.1
177. ATCGCTGG  0.108
178. ACGTAGAA  0.108
179. CAACGTAG  0.108
180. GGAATCAC  0.112
181. CGAAGTCG  0.12
182. ATAACAAA  0.129
183. GGTTTGAA  0.132
184. CATATCCC  0.133
185. GTTCAACA  0.135
186. CATTTCCC  0.138
187. ATAGTGCA  0.141
188. ACGTCGCT  0.144
189. AGCAATAT  0.148
190. CTAACGAG  0.148
191. AAGTAGCA  0.151
192. ACAAAGGT  0.151
193. GGAAATGA  0.156
194. AGTTATTA  0.157
195. GTCCGTTA  0.161
196. ACGGCCGC  0.164
197. GGTTTTCA  0.167
198. AATAAAAA  0.168
199. CGAACAAG  0.173
200. GCAGACGA  0.174
201. GAGAACAA  0.178
202. GACATTGA  0.182
203. CGAACACG  0.188
204. GTCCGAAA  0.195
205. GTCATGCA  0.208
206. CGTCCTAA  0.218
207. AGTCGTAT  0.23
208. CCGTTAGA  0.233
209. ATGTACGG  0.241
210. ATCATCTC  0.253
211. AATCACGT  0.255
212. CGGCATGA  0.268
213. GCATGATA  0.268
214. GCACGAAC  0.269
215. AATGATAC  0.288
216. CGGTACGA  0.291
217. GATTATCA  0.302
218. ACGACAAT  0.329
219. GTATATCA  0.386
